# Part of at least one peptide drawing is inferred or uncertain, most often the ends. At least one structure is not confirmed: it was looked up by name or label, or the drawing left a doubt.
# Assay: Body temperature (hypothermia induction) after intravenous bolus injection in mice
# Format: in vivo
# Conditions: induced body temperature reduction
structure (smiles),measurement,value
CC[C@H](C)[C@H](NC(=O)[C@H](Cc1ccc(O)cc1)NC(=O)[C@@H]1CCCN1C(=O)[C@H](CCCNC(=N)N)NC(=O)[C@H](CCCNC(=N)N)NC(=O)CCCCCN1C(=O)CC(SCCO)C1=O)C(=O)N[C@@H](CC(C)C)C(=O)O (stereo partly drawn) [β-mercapto-MHA-NT (8-13)],Δ Max temp (° C.),0 °C
